The source of these data is patent US20180057581A1.

No constants are given. Whether binding was seen depends on the method and setting. Some results given as binding are weak or reduced against the parent protein; the word gives no strength.

For experiment [1], the target named is human M-CSF (human) (UniProt P09603). Kind of experiment: SET, Fab.
The target in experiment [2] is T1, Recombinant cynomolgus monkey sgM-CSF (cynomolgus (Macaca fascicularis)).
T1 sequence: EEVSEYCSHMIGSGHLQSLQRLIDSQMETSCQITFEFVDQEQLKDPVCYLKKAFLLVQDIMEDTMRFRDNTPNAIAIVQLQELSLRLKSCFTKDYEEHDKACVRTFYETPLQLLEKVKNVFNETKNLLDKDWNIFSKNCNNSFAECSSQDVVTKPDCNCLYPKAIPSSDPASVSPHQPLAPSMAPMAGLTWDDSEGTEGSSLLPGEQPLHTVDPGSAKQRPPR
Kind of experiment: SET, Fab.

B1: Blanche, Fab (Fab, V domains shown)
VH: QVQLQQSGPGLVKPSQTLSLTCAISGDSVSSNSAAWNWIRQSPSRGLEWLGRTYYRSKWKHEYAMSVKSRITINPDTSKNQFSLQLNSVTPEDTAVYYCARDRYYYSAFDYWGQGTLVTVSS
VL: DIALTQPASVSGSPGQSITISCTGTSSDVGGYNSVSWYQQHPGKAPKLMIYAVSNRPSGVSNRFSGSKSGNTASLTISGLQAEDEADYYCASYDERFTRVFGGGTKLTVLG
As to B1, the binding entry in experiment [1] is recorded as “binds”.

B2: Caline, Fab (Fab, V domains shown)
VH: QVQLQQSGPGLVKPSQTLSLTCAISGDSVSSNSAAWNWIRQSPSRGLEWLGRTYYRSKWKHEYAMSVKSRITINPDTSKNQFSLQLNSVTPEDTAVYYCARDRYYYSAFDYWGQGTLVTVSS
VL: QSALTQPASVSGSPGQSITISCTGTSSDVGGYNSVSWYQQHPGKAPKLMIYAVSNRPSGVSNRFSGSKSGNTASLTISGLQAEDEADYYCASYDERFTRVFGGGTKLTVLG
For the molecule B2, the binding entry in experiment [2] and in experiment [1] was “binds” in each case.

B3: Meriem, Fab (Fab, V domains shown)
VH: QVQLQQSGPGLVKPSQTLSLTCAISGDSVSTSSAAWNWIRQSPSRGLEWLGRTYYRSKWKKEYAQSVKSRITINPDTSKNQFSLQLNSVTPEDTAVYYCARDRYYYSAFDYWGQGTLVTVSS
VL: QSALTQPASVSGSPGQSITISCTGTSSDVGGYNSVSWYQQHPGKAPKLIIYAVSNRPSGVSNRFSGSKSGNTASLTISGLQAEDEADYYCASYDERFTRVFGGGTKLTVLG
For the molecule B3, the binding result in experiment [1] is listed as “binds”.

B4: Maelle, Fab (Fab, V domains shown)
VH: QVQLQQSGPGLVKPSQTLSLTCAISGESVSTSSAAWNWIRQSPSRGLEWLGRTYYRSKWKKEYAQSVKSRITINPDTSKNQFSLQLNSVTPEDTAVYYCARDRYYYSAFDYWGQGTLVTVSS
VL: QSALTQPASVSGSPGQSITISCTGTSSDVGGYNSVSWYQQHPGKAPKLIIYAVSNRPSGVSNRFSGSKSGNTASLTISGLQAEDEADYYCASYDERFTRVFGGGTKLTVLG
B4: the binding result in experiment [1] is reported as “binds”.

B5: Madeleine, Fab (Fab, V domains shown)
VH: QVQLQQSGPGLVKPSQTLSLTCAISGDSVSSNSAAWNWIRQSPSRGLEWLGRTYYRSKWKKEYAQSVKSRITINPDTSKNQFSLQLNSVTPEDTAVYYCARDRYYYSAFDYWGQGTLVTVSS
VL: QSALTQPASVSGSPGQSITISCTGTSSDVGGYNSVSWYQQHPGKAPKLMIYAVSNRPSGVSNRFSGSKSGNTASLTISGLQAEDEADYYCASYDERFTRVFGGGTKLTVLG
Consider B5, for which, in experiment [1], the binding result was “binds”.

B6: Laurine, Fab (Fab, V domains shown)
VH: QVQLQQSGPGLVKPSQTLSLTCAISGDSVSSNSAAWNWIRQSPSRGLEWLGRTYYRSKWKKEYAQSVKSRITINPDTSKNQFSLQLNSVTPEDTAVYYCARDRYYYSAFDYWGQGTLVTVSS
VL: DIALTQPASVSGSPGQSITISCTGTSSDVGGYNSVSWYQQHPGKAPKLMIYAVSNRPSGVSNRFSGSKSGNTASLTISGLQAEDEADYYCASYDERFTRVFGGGTKLTVLG
In the case of B6, the binding entry in experiment [1] is reported as “binds”.

B7: Romaine, Fab (Fab, V domains shown)
VH: EVQLVESGGGLVKPGGSLRLSCAASGFTFSIYAMSWVRQAPGKGLEWVGRIKSNADGGTTEYAAPVKGRFTISRDDSKNTLYLQMNSLKTEDTAVYYCARMRYYSDLYFDPWGQGTLVTVSS
VL: DIELTQPPSVSVSPGQTASITCSGDAIGSKYVHWYQQKPGQAPVLVISKDNKRPSGIPERFSGSNSGNTATLTISGTQAEDEADYYCQTATVSSYWWVFGGGTKLTVLG
Consider B7, for which, in experiment [1], the binding result is on record as “binds”.

B8: Satine, Fab (Fab, V domains shown)
VH: EVQLVESGGGLVKPGGSLRLSCAASGFTFSIYAMSWVRQAPGKGLEWVGRIKSNADGGTTEYAAPVKGRFTISRDDSKNTLYLQMNSLKTEDTAVYYCARMRYYSDLYFDPWGQGTLVTVSS
VL: SYELTQPPSVSVSPGQTASITCSGDKLGQKYVSWYQQKPGQSPVLVISQDRKRPSGIPERFSGSNSGNTATLTISGTQAEDEADYYCQTWTHLQWVFGGGTKLTVLG
For the molecule B8, in experiment [1], the binding result is “binds”.

B9: HeRX1-10G1, Fab (Fab, V domains shown)
VH: QVQLQESGPGLVKPSQTLSLTCTVSDYSITSDYAWNWIRQFPGKGLEWMGYISYSGSTSYNPSLKSRITISRDTSKNQFSLQLNSVTAADTAVYYCASFDYAHAMDYWGQGTTVTVSS
VL: DIVLTQSPAFLSVTPGEKVTFTCQASQSIGTSIHWYQQKTDQAPKLLIKYASESISGIPSRFSGSGSGTDFTLTISSVEAEDAADYYCQQINSWPTTFGGGTKLEIKR
As for B9, the binding entry in experiment [1] is “binds”.
